Measured values: the supplement of paper PMC4604168 (melanoma cell lines)
This is one part of the list. Many values rest on one well or one pass, so single values are uncertain.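 The apoptosis fraction was the count of cleaved-PARP antibody-stained nuclei relative to all DNA-stained nuclei, imaged in 1,536-well plates. Screening doses were set so most cells survived, and baseline and induced cleaved-PARP levels vary greatly across cell lines.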

The compounds below were run on RVH-421 (assay: cleaved PARP positive nuclei fraction relative to DMSO control; melanoma cells; higher = more apoptosis). Conditions: library dose: low library concentration; 72 h.

Question: `O=S(=O)(c1ccccc1)N(CC(F)(F)F)c1ccc(C(O)(C(F)(F)F)C(F)(F)F)cc1` + Cc1cc(SCc2sc(-c3ccc(C(F)(F)F)c(F)c3)nc2C)ccc1OCC(=O)O [GW0742] (first compound 1.4 µM, partner dose 2 µM) was tested. Which “cleaved PARP positive nuclei fraction” value did it give?
Answer: 78.3%

Question: `COc1ccc(COc2ccc(Cc3cnc(N)nc3N)cc2OC)cc1` + Cc1cc(SCc2sc(-c3ccc(C(F)(F)F)c(F)c3)nc2C)ccc1OCC(=O)O [GW0742] (first compound 1 µM, partner dose 2 µM) was tested. Which “cleaved PARP positive nuclei fraction” value did it give?
Answer: 33.9%

Question: For `C[As](C)SC[C@H](NC(=O)CC[C@H](N)C(=O)O)C(=O)NCC(=O)O` [Darinaparsin] + CCc1ccc(CCOc2ccc(CC3SC(=O)NC3=O)cc2)nc1 [pioglitazone] (first compound 0.4 µM, partner dose 2 µM), which “cleaved PARP positive nuclei fraction” value is on record?
Answer: 164%

Question: With `O=C(Oc1ccc([N+](=O)[O-])cc1)N1CCC(C(O)(c2ccc3c(c2)OCO3)c2ccc3c(c2)OCO3)CC1` + CC(C)CCN1c2nc(Nc3cc(F)c(O)c(F)c3)ncc2N(C)C(=O)C1C [BID1870] (first compound 1 µM, partner dose 0.2 µM) as the compound, how does the “cleaved PARP positive nuclei fraction” value read?
Answer: 38.1%

Question: Which “cleaved PARP positive nuclei fraction” value does the source give for `CO[C@H]1C[C@@H]2CC[C@@H](C)[C@@](O)(O2)C(=O)C(=O)N2CCCC[C@H]2C(=O)O[C@H]([C@H](C)C[C@@H]2CC[C@@H](OCCO)[C@H](OC)C2)CC(=O)[C@H](C)/C=C(\C)[C@@H](O)[C@@H](OC)C(=O)[C@H](C)C[C@H](C)/C=C/C=C/C=C/1C` [everolimus] + Cc1cc(SCc2sc(-c3ccc(C(F)(F)F)c(F)c3)nc2C)ccc1OCC(=O)O [GW0742] (first compound 0.02 µM, partner dose 2 µM) here?
Answer: 104%

Question: How did the “cleaved PARP positive nuclei fraction” value turn out when `COc1cc(Nc2ncc(F)c(Nc3ccc4c(n3)NC(=O)C(C)(C)O4)n2)cc(OC)c1OC` [Tamatinib] + O=C(Oc1ccc([N+](=O)[O-])cc1)N1CCC(C(O)(c2ccc3c(c2)OCO3)c2ccc3c(c2)OCO3)CC1 [JZL184] (first compound 0.4 µM, partner dose 1 µM) was run?
Answer: 126%

Question: For `COc1cc2ncnc(Nc3ccc(Oc4ccccc4)cc3)c2cc1OC` + O=C(Oc1ccc([N+](=O)[O-])cc1)N1CCC(C(O)(c2ccc3c(c2)OCO3)c2ccc3c(c2)OCO3)CC1 [JZL184] (first compound 2 µM, partner dose 1 µM), which “cleaved PARP positive nuclei fraction” value is on record?
Answer: 37.6%

Question: Which “cleaved PARP positive nuclei fraction” value does the source give for `C/C(O)=C(\C#N)C(=O)Nc1cc(Br)ccc1Br` + O=C(Oc1ccc([N+](=O)[O-])cc1)N1CCC(C(O)(c2ccc3c(c2)OCO3)c2ccc3c(c2)OCO3)CC1 [JZL184] (first compound 2 µM, partner dose 1 µM) here?
Answer: 61.5%

Question: How did the “cleaved PARP positive nuclei fraction” value turn out when `C/C(O)=C(\C#N)C(=O)Nc1cc(Br)ccc1Br` + CC(C)CCN1c2nc(Nc3cc(F)c(O)c(F)c3)ncc2N(C)C(=O)C1C [BID1870] (first compound 2 µM, partner dose 0.2 µM) was run?
Answer: 80.1%

Question: Which “cleaved PARP positive nuclei fraction” value does the source give for `N#Cc1c(O)c2c(-c3ccc(-c4ccccc4O)cc3)csc2[nH]c1=O` + C/C(O)=C(\C#N)C(=O)Nc1cc(Br)ccc1Br [LFM-A13] (first compound 2 µM, partner dose 2 µM) here?
Answer: 81.3%

Question: How did the “cleaved PARP positive nuclei fraction” value turn out when `C[C@]12O[C@H](C[C@]1(O)CO)n1c3ccccc3c3c4c(c5c6ccccc6n2c5c31)CNC4=O` [Lestaurtinib] + C[C@@H]1CCN(C(=O)CC#N)C[C@@H]1N(C)c1ncnc2[nH]ccc12 [CP690550] (first compound 0.004 µM, partner dose 1 µM) was run?
Answer: 87.7%

Question: How did the “cleaved PARP positive nuclei fraction” value turn out when `Cc1ccc(NC(=O)c2cccc(N(C)C)c2)cc1NC(=O)c1ccc(O)cc1` + C/C(O)=C(\C#N)C(=O)Nc1cc(Br)ccc1Br [LFM-A13] (first compound 2 µM, partner dose 2 µM) was run?
Answer: 181%
